# Hit rate of the full screen: of about 300,000 compounds, about 3,700 (1.2%) were called active. This list was built around the results that the source calls inconclusive (neither active nor inactive); the mix of calls is not that of the screen. Calls follow the shape of the full dose curve; tested in HEK293 cells. A potency beside an inconclusive call is a rough fit, not a confirmed value.
# Experiment: qHTS for Inhibitors of binding or entry into cells for Lassa Virus; also: nearly all actives have a fitted effect of over 50% in size
# Conditions: Lassa virus pseudotype entry inhibition, cell reporter; series mostly up to 37.9 µM
# Potency is read from the fitted curve at half-maximal effect.
row,SMILES,Potency
1,O=C(Nc1ccc2nc(-c3ccco3)[nH]c2c1)c1ccco1,inactive
2,O=C(COC(=O)C1CC1)Nc1ccc(OC(F)F)cc1,inactive
3,CCc1cccc(NC(=O)CCc2c(C)nc3c(-c4ccccc4)c(C)nn3c2C)c1,"inconclusive: 3.55 µM [inhibitor, single point]"
4,CCOC(=O)N1CCC(NC(=O)C(Cc2ccccc2)NC(=O)c2ccco2)CC1 (stereo not given),inactive
5,N#CCC(=O)Nc1ccc(C(=O)OCC(=O)c2ccc3c(c2)OCO3)cc1,"inconclusive: 11.2 µM [activator, single point]"
6,COc1cc(OC)c(NC(=O)N2CCC(CN3CCOCC3)CC2)cc1Cl,inactive
7,Cc1ccc(NC(=O)CNc2ccc(OC(C)C)cc2)c(C)c1,inactive
8,Cc1cc(C)n2ncc(C(=O)NCc3ccc(Cl)cc3)c2n1,inactive
9,Cn1c(N)c(C(=O)COC(=O)COc2ccc(Cl)cc2Cl)c(=O)n(C)c1=O,"inconclusive: 12.6 µM [activator, single point]"
10,Cc1ccc(C(=O)N/N=C\c2cc3c(cc2Br)OCO3)s1,active: 11.2 µM
11,C/C(O)=C\c1nc2ccccc2oc1=O,inactive
12,COc1cccc(NC(=O)Cc2nnc(SCCOc3ccccc3)n2C)c1,"inconclusive: 35.5 µM [inhibitor, partial curve, poor fit]"
13,CC(=O)Nc1sc2c(c1C(c1ccccn1)N1CCCC1)CCCC2 (stereo not given),"inconclusive: 5.62 µM [inhibitor, single point]"
14,COC(=O)c1sc2c(c1C)c(=O)n(-c1ccccc1)c(=O)n2CC(=O)Nc1cccc(C)c1,inactive
15,O=C(Nc1cccnc1Cl)c1cc([N+](=O)[O-])ccc1Cl,"inconclusive: 4.47 µM [inhibitor, partial curve, poor fit]"
16,Cc1cc(C)c(S(=O)(=O)N2CCCOC2CNC(=O)C(=O)NCCc2c[nH]c3ccccc23)c(C)c1 (stereo not given),"inconclusive: 29.1 µM [inhibitor, single point]"
17,CN1CCN(/N=C/c2c3ccccc3c(Cl)c3ccccc23)CC1,"inconclusive: 22.4 µM [inhibitor, single point]"
18,COc1ccc2c(c1)O[C@H](c1ccc3c(c1)OCO3)[C@@H](OC(=O)Nc1ccc(C)c(Br)c1)C2=O,"inconclusive: 0.376 µM [activator, single point]"
19,COc1cc2c(cc1OC)[C@@H]1O[C@](CCCCN3C(=O)c4ccccc4C3=O)(C2)Oc2c1c(=O)oc1ccc(F)cc21,"inconclusive: 2.37 µM [activator, single point]"
20,COCc1nnc(NC(=O)c2ccc(OC)cc2OC)s1,"inconclusive: 14.1 µM [inhibitor, single point]"
21,CC/C(Cc1ccccc1)=N/NC(=O)c1cccc(Br)c1,inactive
22,CC(C)NC(=O)c1ccc2c(c1)N(Cc1cccc(Cl)c1)C(=O)c1ccccc1S2=O (stereo not given),inactive
23,CCOc1ccc(NC(=O)COC(=O)c2ccc3c(c2)C(=O)N(CCc2ccccc2)C3=O)cc1,inactive

# 3 compounds from above, arranged by heavy-atom count, low to high.
row,SMILES,Potency
11,C/C(O)=C\c1nc2ccccc2oc1=O,inactive
17,CN1CCN(/N=C/c2c3ccccc3c(Cl)c3ccccc23)CC1,"inconclusive: 22.4 µM [inhibitor, single point]"
9,Cn1c(N)c(C(=O)COC(=O)COc2ccc(Cl)cc2Cl)c(=O)n(C)c1=O,"inconclusive: 12.6 µM [activator, single point]"

# The list continues.

row,SMILES,Potency
1,CCN1CCN(C(=S)Nc2ccc3nc(N4CCN(CC)CC4)cc(C)c3c2)CC1,"inconclusive: 10 µM [inhibitor, partial curve, poor fit]"
2,Cc1ccc2nsnc2c1NC(=O)c1ccc(-c2cc(Cl)ccc2Cl)o1,"inconclusive: 11.2 µM [inhibitor, single point]"
3,COc1cc(C2SCCS2)cc(Br)c1Oc1ncccc1[N+](=O)[O-],"inconclusive: 39.8 µM [inhibitor, partial curve, poor fit]"
4,O=C(Nc1ccccc1)c1ccc(COc2ccccc2)cc1,"inconclusive: 3.66 µM [activator, single point]"
5,Cc1[nH]n(-c2ccccc2)c(=O)c1N=Nc1ccccc1C(=O)N1CCOCC1,"inconclusive: 17.8 µM [activator, partial curve, poor fit]"
6,CCOc1ccc(NC(=O)CSc2nnc(C34CC5CC(CC(C5)C3)C4)n2C)cc1,"inconclusive: 11.6 µM [inhibitor, partial curve, poor fit]"
7,c1ccc(CCNc2ncnc3scc(C4COc5ccccc5O4)c23)cc1 (stereo not given),inactive
8,CCOc1ccc(C(=O)c2ccncc2)cc1,inactive
9,CCOc1cc(CNC(=O)C2CCN(c3nc4ccccc4[nH]3)CC2)cc(OCC)c1OCC,inactive
10,COc1cccc(CNC(=O)c2c(C)oc3ncnc(N4CCOCC4)c23)c1,"inconclusive: 3.55 µM [activator, partial curve, poor fit]"
11,COc1ccc(-c2csc(NC(=O)c3cccc(S(=O)(=O)N4CCN(C)CC4)c3)n2)cc1,"inconclusive: 29.1 µM [inhibitor, single point]"
12,Cc1ccccc1C(=O)Nc1cc2c(cc1N1CCCCC1)n(C)c(=O)n2C,"inconclusive: 11.2 µM [inhibitor, partial curve, poor fit]"
13,Cc1ccc(C(=O)C2CN(C)CC2C(=O)c2ccc(C)cc2)cc1 (stereo not given),inactive
14,CCCCOc1cccc(C(=O)N(Cc2cccs2)C2CCS(=O)(=O)C2)c1 (stereo not given),"inconclusive: 10 µM [inhibitor, partial curve, poor fit]"
15,Cc1nnc(SCC(=O)N2CC(=O)Nc3ccccc32)n1-c1ccccc1,inactive
16,CCOc1ccc2nc(SCC3CC3(Cl)Cl)[nH]c2c1 (stereo not given),"inconclusive: 25.1 µM [inhibitor, single point]"
17,CCOc1ccccc1NC(=O)[C@@H](NC(=O)c1cccc(S(=O)(=O)N2CCOCC2)c1)C(C)C,inactive
18,Cc1ccc(NC(=O)c2ccn(C)n2)c(Br)c1,"inconclusive: 4.61 µM [inhibitor, full curve, poor fit]"
19,CCOC(=O)c1c(C)c(C(=O)NCc2ccccc2OC)c(C)n1C,"inconclusive: 20.6 µM [inhibitor, single point]"
20,c1ccc(CNc2c3c(nc4ccccc24)CCC3)cc1,"inconclusive: 10 µM [inhibitor, partial curve, poor fit]"
21,C/C(=C\C(=O)c1cccnc1)Nc1ccc(C)c(C)c1,"inconclusive: 0.326 µM [activator, full curve]"
22,COc1cc(/C=C/C(=O)OCC(=O)N2CCCc3ccccc32)ccc1OC(F)F,"inconclusive: 14.1 µM [inhibitor, single point]"

# Reference: PubChem BioAssay AID540256 (National Center for Advancing Translational Sciences (NCATS), 2011)
